These results are taken from patent US10035818B2 (Bayer Pharma Aktiengesellschaft, priority 2011, dated 2018).

The data set is described as follows: general procedure: Fmoc solid-phase peptide synthesis; Tentagel based Rink amide resin; TBTU/DIEA. The conditions noted are these: conjugation step, of theory.

In turn, “O-{[(3 S)-3-Amino-4-({(2R)-1-amino-3-[(2,5-dioxo-1-{3-oxo-3-[(2-{ω-methoxy-poly-oxyethylen[40 kDa]}ethyl)amino]propyl}pyrrolidin-3-yl)sulfanyl]-1-oxopropan-2-yl}amino)-4-oxobutyl]carbamoyl}-L-tyrosyl-adrenomedullin(2-52)” came in with a conjugation yield of 33%.

For the substance “O-{[(4S)-4-Amino-5-({(2R)-1-amino-3-[(2,5-dioxo-1-{3-oxo-3-[(2-{ω-methoxy-poly-oxyethylen[40 kDa]}ethyl)amino]propyl}pyrrolidin-3-yl)sulfanyl]-1-oxopropan-2-yl}amino)-5-oxopentyl]carbamoyl}-L-tyrosyl-adrenomedullin(2-52)”, the conjugation yield is given as 17%.
